From patent US6919208B2, “Methods and compositions for enhancing the delivery of a nucleic acid to a cell” (The Children's Hospital of Philadelphia, priority 2000, dated 2005)

Test system: A10 cells
Assay: p-EGFP-N3 (GFP) plasmid transfection of A10 cells on native type I collagen with cytochalasin D added after lipofection
Assay type: cell-based, Rat
Settings: 1 nanomolar
Experimental: A10 cells were grown on native type I collagen. […] Immediately after lipofection, cytochalasin D at a final concentration of 1 nanomolar was either added to cells for thirty minutes, added to cells for an overnight incubation or not added at all (control). The fluorescence of control cells, cells treated with cytochalasin D for thirty minutes, and cells treated with cytochalasin D for an overnight incubation (FIGS. 6A, 6B and 6C, respectively) was assessed. Bright field micrographs were also taken of the control cells, cells treated with cytochalasin D for thirty minutes, and cells treated with cytochalasin D for an overnight incubation (FIGS. 7A, 7B and 7C, respectively).

C=C1[C@@H](C)[C@H]2[C@H](Cc3ccccc3)NC(=O)[C@]23[C@H](OC(C)=O)/C=C/[C@@](C)(O)C(=O)[C@@H](C)C/C=C/[C@H]3[C@@H]1O [cytochalasin D]
cell shape (bright field micrograph) (overnight exposure): more rounded cell shape
cell shape (bright field micrograph) (thirty minute exposure): marked change in cell shape
